Screening data

Source: PubChem BioAssay AID912 (NCATS, 2007).

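A cell-based FRET test of anthrax lethal toxin entry, tracked through the 460 nm emission signal; the cell line is not named here.
Each compound was tested as a concentration series from about 0.0005 to 40 µM.
The number is the fitted AC50 of the 460 nm signal alone; lower values mean a more potent effect. A falling signal goes with compounds filed as inhibitors or cytotoxic, a rising one with activators or fluorescent compounds (inferred from the filed classes).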

Values are in µM.
Common to all entries: measured here: 460 nm channel.
Part of the compounds only, not a random draw; the main read-out is not listed here.
A potency from a partial, single-point or poor curve is only a rough figure.
The first word of each remark tells which way the curve ran; it can be opposite to the aim of the assay.

| # | compound | AC50 (µM) | remark |
|---|---|---|---|
| 1 | `C[C@@H](C(=O)Nc1ccc2ccccc2c1)[C@@H]1C[C@@]1(C)[C@@H](NC(=O)OCc1ccccc1)c1ccccc1` | 31.62 | falling, single point |
| 2 | `CCOc1ccc(NCC2CCOC(C)(C)C2)cc1` (stereo unspecified) | 2.512 | rising, partial curve |
| 3 | `NCCCCN=C(N)N` | 10 | falling, full curve |
| 4 | `CCOc1ccc(OCC)c(NC(=O)CN2CCN(c3ccc(C)cc3C)CC2)c1` | 12.59 | falling, partial curve, poor fit |
| 5 | `CSc1cccc(NC(=O)C2CCN(S(=O)(=O)c3ccc(F)cc3)CC2)c1` | 25.12 | falling, single point |
| 6 | `CC(=O)c1ccc(OCCCC(=O)N2CCN(S(=O)(=O)c3cccs3)CC2)cc1` | 0.1585 | rising, partial curve |
| 7 | `Nc1nnc(SCc2cccc(C(F)(F)F)c2)s1` | 3.981 | falling, full curve |
| 8 | `CCC(C)OC(=O)C1=C(C)NC(=O)NC1c1ccc(F)cc1` (stereo unspecified) | 6.31 | rising, partial curve |
| 9 | `CCOc1ccc(NC(=O)C2CC(=O)N(C)C(=Nc3ccc4c(c3)OCO4)S2)cc1` (stereo unspecified) | 2.512 | rising, partial curve, poor fit |
| 10 | `Cn1c(CNc2nc(-c3ccccc3)cs2)nnc1SCC(=O)OC1CCCCC1` | 12.59 | rising, single point |
| 11 | `COc1ccc(-n2c(=O)c(CCc3ccccc3)nc3cnc(N4CCOCC4)nc32)cc1` | 5.012 | falling, single point |
| 12 | `CC1CCN(C(=O)CSc2nnc(Cc3cccn3C)n2CCc2ccccc2)CC1` | 7.943 | rising, partial curve |
| 13 | `Cc1nn(C)cc1CNC(=O)c1cnn2c1NC(c1ccc(Br)cc1)CC2C(F)(F)F` (stereo unspecified) | 12.59 | falling, partial curve |
| 14 | `CC(=O)Nc1ccc(C(=O)CCl)cc1` | 12.59 | falling, full curve |
| 15 | `O=[N+]([O-])c1cccc(I)c1` | 31.62 | falling, partial curve |
| 16 | `CCCCCCCCCCCCCCCC(=O)NCCc1ccc(O)c(O)c1` | 15.85 | falling, partial curve |
| 17 | `CCCc1n[nH]c2c1/C(=N/O)CC(c1ccccc1)C2` (stereo unspecified) | 7.943 | rising, partial curve |
| 18 | `CCCCN(CCCC)CCCNC(=O)CC1Oc2ccc(C)cc2NC1=O` (stereo unspecified) | 0.01 | falling, full curve |
| 19 | `CN1C[C@H](CNC(=O)OCc2ccccc2)C[C@H]2c3cccc4c3c(cn4C)C[C@@H]21` | 15.85 | falling, partial curve |
| 20 | `CC1(C)CC2CC(C)(CN2C(=O)c2cccs2)C1` (stereo unspecified) | 0.007943 | falling, full curve, poor fit |
| 21 | `Cc1cc(=O)n2nc(N3CCCC(C(=O)NCCC4=CCCCC4)C3)sc2n1` (stereo unspecified) | 0.003981 | falling, full curve, poor fit |
| 22 | `CC(C)N=C(NC#N)SCc1ccccc1F` | 0.1585 | falling, single point |
| 23 | `COC(=O)c1[nH]c2ccc(C)cc2c1NC(=O)CN1CCN(Cc2ccccc2)CC1` | 10 | falling, partial curve |
| 24 | `N#Cc1cc2[nH]c(=O)c(=O)[nH]c2cc1[N+](=O)[O-]` | 0.1995 | falling, full curve |
| 25 | `O=C1c2ccccc2C(Nc2ccc3c(c2)OCCO3)N1c1ccccn1` (stereo unspecified) | 3.981 | falling, single point |
| 26 | `O=c1c(-c2ccccc2)nc2cnc(N3CCNCC3)nc2n1-c1ccccc1` | 12.59 | rising, partial curve |
| 27 | `CCOC(=O)N1CCC(N2C(=O)c3ccc(C(=O)O)cc3C2=O)CC1` | 0.1259 | falling, full curve, poor fit |
| 28 | `O=C(O)CCC(=O)Nc1ccc2ccccc2c1` | 1 | rising, single point |
| 29 | `CCN(CC)CCCN(C(=O)c1cccs1)c1nc(-c2ccc(OC)cc2)cs1` | 10 | falling, partial curve |
| 30 | `O=C(NC1CCCC1)c1nc2c(nnn2Cc2cccc(Cl)c2)c(=O)[nH]1` | 7.943 | rising, partial curve, poor fit |
| 31 | `O[C@H](CN1CCN(c2cccc(Cl)c2)CC1)C(c1ccccc1)c1ccccc1` | 25.12 | falling, partial curve |
| 32 | `CCOC(=O)c1c(-c2ccc(C)o2)csc1NC(=O)CSc1nnnn1-c1ccccc1` | 12.59 | falling, partial curve |
| 33 | `O=S(=O)(c1ccc(OCC(O)CN2CCN(c3ccc(F)cc3)CC2)cc1)N1CCOCC1` (stereo unspecified) | 12.59 | rising, partial curve |
| 34 | `CCOC(=O)CC(=O)CSCC(=O)Nc1ccc(C)cc1` | 31.62 | rising, partial curve, poor fit |
| 35 | `CC1CN(c2nn3c(=O)c4ccccc4nc3c3ccccc23)CC(C)O1` (stereo unspecified) | 15.85 | rising, single point |
| 36 | `O=C(O)CCCC[C@@H]1SC[C@H]2NC(=O)N[C@H]12` | 12.59 | falling, full curve |
| 37 | `COCCOC(=O)C1=C(C)NC2=C(C(=O)CC(C)(C)C2)C1c1cccnc1` (stereo unspecified) | 12.59 | rising, single point |
| 38 | `O=c1c(-c2cc(F)cc(F)c2)nc2cnc(N3CCNCC3)nc2n1-c1ccccc1` | 1.995 | rising, full curve |
| 39 | `CC(C)NC[C@H](O)COc1ccc(CC(N)=O)cc1` | 12.59 | falling, partial curve |
| 40 | `Cc1cc(NC(=O)CCN2CCC(C(N)=O)CC2)ccc1Br` | 12.59 | falling, single point |
| 41 | `CC(C)(C)OC(=O)NCCc1nnc(SCC(=O)c2ccc(Cl)cc2)o1` | 0.2512 | falling, full curve |
| 42 | `O=C(CSc1nc2ncccc2[nH]1)Nc1ccc2c(c1)OCCO2` | 1.585 | rising, single point |
| 43 | `COc1ccccc1-c1cc(C(F)(F)F)nc(NCc2ccco2)n1` | 6.31 | falling, partial curve |
| 44 | `Cn1c(=O)c2c(nc(N3CCN(c4ccccc4)CC3)n2CCCc2ccccc2)n(C)c1=O` | 5.012 | rising, partial curve |
| 45 | `COCCSc1ccccc1C(=O)NCC1CCCO1` (stereo unspecified) | 0.01995 | rising, full curve, poor fit |
| 46 | `Cc1ccc(-n2c(=O)c(C#N)cc3c(=O)n4ccccc4nc32)cc1` | 0.1259 | rising, full curve, poor fit |
| 47 | `COc1ccc2c(c1)CCc1c(C(=O)N3CCc4ccccc4C3)noc1-2` | 15.85 | falling, partial curve |
| 48 | `COc1ccccc1CNc1ncnc2ccc(-c3ccc4c(c3)OCO4)cc12` | 3.981 | falling, full curve |
| 49 | `CCC(=O)n1nc(-c2ccco2)nc1N` | 1.259 | falling, partial curve, poor fit |
| 50 | `CC1(C(=O)NC2CCCCCCC2)CCC(=O)N1Cc1ccco1` (stereo unspecified) | 6.31 | rising, partial curve |
| 51 | `Cc1ccc(S(=O)(=O)NC2=NCN(Cc3cccnc3)CN2)cc1` | 0.01 | falling, full curve, poor fit |
| 52 | `Nc1cc(-c2ccc(Br)cc2)nn1S(=O)(=O)c1ccccc1` | 0.7943 | falling, full curve, poor fit |
| 53 | `O=C(CSCCO)Nc1cccc(C(F)(F)F)c1` | 0.3981 | falling, full curve |
| 54 | `OC(CN1CCN(c2cccc(C(F)(F)F)c2)CC1)c1c[nH]c2ccccc12` (stereo unspecified) | 10 | falling, single point |
| 55 | `COc1cccc(Cn2c(=O)c(-c3ccccc3)nc3cnc(N4CCNCC4)nc32)c1` | 10 | rising, partial curve |
| 56 | `CN(C)P(=NC(=S)c1cccn1C)(N(C)C)N(C)C` | 19.95 | falling, partial curve |
| 57 | `N#C/C(=C\c1ccc(O)c(O)c1)C(=O)Nc1ccccc1` | 25.12 | falling, partial curve |
| 58 | `O=C(COc1ccc(Cl)cc1)Nc1nc(-c2cccs2)cs1` | 10 | falling, partial curve |
| 59 | `CCCn1c(-c2ccc(F)cc2)nc2c(N3CCN(Cc4nc(OC)cc(OC)n4)CC3)nc(C)nc21` | 10 | falling, single point |

The last 4 entries again:

compound,AC50 (µM),remark
CN(C)P(=NC(=S)c1cccn1C)(N(C)C)N(C)C,19.95,"falling, partial curve"
N#C/C(=C\c1ccc(O)c(O)c1)C(=O)Nc1ccccc1,25.12,"falling, partial curve"
O=C(COc1ccc(Cl)cc1)Nc1nc(-c2cccs2)cs1,10,"falling, partial curve"
CCCn1c(-c2ccc(F)cc2)nc2c(N3CCN(Cc4nc(OC)cc(OC)n4)CC3)nc(C)nc21,10,"falling, single point"